Results deposited as PubChem BioAssay AID743454 (Peter MacCallum Cancer Centre, 2014).
Aim: 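Search for knock-downs that restore vorinostat killing in resistant colon cancer cells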 (primary screen). System: human HCT116-VR colon cancer cells, selected for vorinostat resistance. Reagents: siRNA pool against human genes, 40 nM siRNA pool. Time to read-out: vorinostat for 24 h, read-out about 72 h after transfection. Conditions: vorinostat at 2.5 µM final. Measurement: 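Two measures, CellTiter-Fluor viability and luminescent caspase 3/7 activity, each as fold change against same-plate mock wells, mean of duplicates, then screen-wide robust z-score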. Reading the numbers: viability robust z-score: higher = more viable cells than screen typical; caspase robust z-score: higher = more caspase 3/7 activity than screen typical. Active means: 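Hits are knock-downs in viability class RV1/RV2 or caspase class CA1/CA2, excluding ones that killed cells in the no-drug cell-count arm; hits then retested with single siRNAs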.
Here is an unselected part of about 18,000 reagents. 450 of them (2.5%) were called active. 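Single biological run; no consistent viability z cut-off exists, so the class columns, not z-scores, define the calls.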 No sequences are given here.

| gene knocked down | PubChem SID | viability hit class | caspase hit class | viability robust z-score | caspase robust z-score | Outcome |
| --- | --- | --- | --- | --- | --- | --- |
| MRGPRD (GeneID 116512) | SID135621049 | no change | no change | 0.15 | -1.21 | inactive |
| PAX5 (GeneID 5079) | SID134316526 | no change | no change | 0.54 | 0.9 | inactive |
| RAD23A (GeneID 5886) | SID134310819 | no change | no change | -0.36 | -0.19 | inactive |
| INS-IGF2 (GeneID 723961) | SID135625663 | no change | no change | 1.05 | -0.26 | inactive |
| RTL4 (GeneID 340595) | SID152152772 | no change | no change | 0.88 | -0.96 | inactive |
| LOC652436 (retired record) (GeneID 652436) | SID152155556 | no change | no change | 0.12 | -0.18 | inactive |
| PFN2 (GeneID 5217) | SID135622191 | no change | no change | -0.33 | -0.72 | inactive |
| SDHD (GeneID 6392) | SID134311722 | no change | no change | -1.89 | 2.5 | inactive |
| ASPA (GeneID 443) | SID135621826 | no change | no change | -0.32 | -0.96 | inactive |
| BUD13 (GeneID 84811) | SID134319046 | no change | no change | 0.66 | -0.67 | inactive |
| NECAB2 (GeneID 54550) | SID134322767 | no change | no change | 0.66 | 1.84 | inactive |
| SLC35B3 (GeneID 51000) | SID134312590 | no change | no change | -1.53 | 0.26 | inactive |
| ITGA10 (GeneID 8515) | SID134312933 | no change | no change | 0.18 | -0.01 | inactive |
| GABRB1 (GeneID 2560) | SID134311587 | no change | no change | -0.67 | -0.5 | inactive |
| HEXIM2 (GeneID 124790) | SID134320214 | no change | no change | -1.14 | -1.31 | inactive |
| KRTAP4-5 (GeneID 85289) | SID135622579 | no change | no change | 0.06 | 0.06 | inactive |
| GPM6B (GeneID 2824) | SID135623607 | no change | no change | -0.72 | -0.6 | inactive |
| PHAX (GeneID 51808) | SID135625195 | no change | no change | -1.26 | -1.25 | inactive |
| COL21A1 (GeneID 81578) | SID152148222 | no change | no change | 0.4 | -0.55 | inactive |
| USP25 (GeneID 29761) | SID152151800 | no change | no change | -0.71 | 0.48 | inactive |
| RETREG3 (GeneID 162427) | SID134322312 | no change | no change | -0.19 | -0.66 | inactive |

Single entries from the entries so far:
GPM6B (GeneID 2824) [SID135623607], viability robust z-score = -0.72
Under “caspase robust z-score”, HEXIM2 (GeneID 124790) [SID134320214] reads -1.31
RETREG3 (GeneID 162427) [SID134322312], caspase hit class = no change
ASPA (GeneID 443) [SID135621826], caspase robust z-score → -0.96
Result of ITGA10 (GeneID 8515) [SID134312933] in “caspase hit class”: no change

Continued.
| gene knocked down | PubChem SID | viability hit class | caspase hit class | viability robust z-score | caspase robust z-score | Outcome |
| --- | --- | --- | --- | --- | --- | --- |
| ZNF740 (GeneID 283337) | SID152154213 | no change | no change | 1.62 | 1.05 | inactive |
| ATP5PB (GeneID 515) | SID152153332 | no change | no change | -1.54 | 1.61 | inactive |
| RAB44 (GeneID 401258) | SID135625092 | no change | no change | 1.59 | -0.74 | inactive |
| PLK3 (GeneID 1263) | SID56478615 | no change | no change | -0.78 | 1.64 | inactive |
| PCDHGA5 (GeneID 56110) | SID134317504 | no change | no change | 0.06 | -0.9 | inactive |
| MZB1 (GeneID 51237) | SID152151414 | no change | no change | -1.23 | 2.12 | inactive |
| HLA-DQA1 (GeneID 3117) | SID135622482 | no change | no change | -2.13 | 2.09 | inactive |
| KCTD7 (GeneID 154881) | SID134320959 | no change | no change | 0.28 | -0.56 | inactive |
| C10orf95 (GeneID 79946) | SID134318644 | no change | no change | 0.83 | 0.06 | inactive |
| CPEB3 (GeneID 22849) | SID135623991 | no change | no change | 0.85 | 1.33 | inactive |
| MMP20 (GeneID 9313) | SID134311385 | no change | no change | 1.36 | 0.3 | inactive |
| PPEF2 (GeneID 5470) | SID134316534 | no change | no change | -0.93 | -0.49 | inactive |
| CD58 (GeneID 965) | SID134310510 | no change | no change | 1.19 | 0.14 | inactive |
| GOLGA8EP (GeneID 390535) | SID152156727 | no change | no change | 0.16 | -0.92 | inactive |
| MEIS1 (GeneID 4211) | SID134316046 | no change | no change | -0.2 | -0.68 | inactive |
| BAZ1B (GeneID 9031) | SID152149179 | no change | no change | 0.63 | 0.04 | inactive |
| INPP5B (GeneID 3633) | SID152149414 | no change | no change | -0.93 | 3.58 | inactive |
| FANCD2 (GeneID 2177) | SID135623135 | no change | no change | -0.72 | -0.48 | inactive |
